Laboratory results reported in PMC10613268, “Shade-induced RTFL/DVL peptides negatively regulate the shade response by directly interacting with BSKs in Arabidopsis” (Nature Communications, 2023).
These are yes or no findings as the source states them, for the method shown. For some assays here: Binding seen in cells or lysates may run through a third protein. Some results given as binding are weak or reduced against the parent protein; the word gives no strength. Sequences can lack the tags named with a protein. One block for each molecule: values may come before it.

The chains behind the UniProt entries cited, without tags or fusion partners.
UniProt Q9M324: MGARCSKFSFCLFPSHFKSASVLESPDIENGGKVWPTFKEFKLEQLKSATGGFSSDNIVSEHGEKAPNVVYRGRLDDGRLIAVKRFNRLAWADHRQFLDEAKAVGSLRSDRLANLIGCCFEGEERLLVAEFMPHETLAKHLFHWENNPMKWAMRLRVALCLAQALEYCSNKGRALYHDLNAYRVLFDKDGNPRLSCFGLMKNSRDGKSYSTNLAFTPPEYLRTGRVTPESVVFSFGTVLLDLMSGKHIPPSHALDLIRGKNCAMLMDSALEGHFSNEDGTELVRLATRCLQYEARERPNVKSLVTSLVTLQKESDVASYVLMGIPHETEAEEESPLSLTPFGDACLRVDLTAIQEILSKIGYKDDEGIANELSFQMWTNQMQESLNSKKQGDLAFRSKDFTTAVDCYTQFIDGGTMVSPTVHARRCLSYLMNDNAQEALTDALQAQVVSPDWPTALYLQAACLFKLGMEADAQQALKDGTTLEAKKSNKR
UniProt Q8W4L3: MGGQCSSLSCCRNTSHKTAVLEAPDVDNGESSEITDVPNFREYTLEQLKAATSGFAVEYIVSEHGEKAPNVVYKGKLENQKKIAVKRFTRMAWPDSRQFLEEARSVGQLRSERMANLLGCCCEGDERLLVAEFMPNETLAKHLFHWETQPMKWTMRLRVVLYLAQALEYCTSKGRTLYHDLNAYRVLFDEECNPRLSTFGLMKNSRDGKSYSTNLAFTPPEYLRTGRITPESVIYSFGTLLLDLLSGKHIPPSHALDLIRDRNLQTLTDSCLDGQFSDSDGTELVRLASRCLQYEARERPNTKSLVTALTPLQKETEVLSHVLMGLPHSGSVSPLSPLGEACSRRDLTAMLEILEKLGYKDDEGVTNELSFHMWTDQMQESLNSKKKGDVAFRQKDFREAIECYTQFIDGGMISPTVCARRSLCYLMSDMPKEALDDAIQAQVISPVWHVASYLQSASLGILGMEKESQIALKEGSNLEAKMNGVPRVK

Key:
GST-RTFL18 (Arabidopsis) = target: T1, GST-RTFL18 (Arabidopsis) (UniProt Q6X5V0); test: pull-down; semi-in vivo: purified GST or GST-RTFL18 mixed with extract of N. benthamiana leaves expressing BSK3/BSK6-Flag, glutathione-agarose beads, 4 °C 2 h; blot anti-Flag, anti-GST; only the target purified
T1 sequence: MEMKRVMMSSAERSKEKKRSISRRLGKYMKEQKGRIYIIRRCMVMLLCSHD

BSK6-cYFP (Arabidopsis) = BSK6-cYFP (Arabidopsis) (UniProt Q9M324); test: split reporter; BiFC with split YFP in tobacco leaves; nYFP-RTFL18 with BSK-cYFP; confocal microscopy
BSK3-cYFP (Arabidopsis) = BSK3-cYFP (Arabidopsis) (UniProt Q8W4L3); test: as above
[1] = target: BSK6-GFP (Arabidopsis Flag-RTFL18*BSK6-GFP line) (Arabidopsis) (UniProt Q9M324); test: co-IP; Arabidopsis Flag-RTFL18*BSK3-GFP and Flag-RTFL18*BSK6-GFP plants, white light or low R:FR for 1 h; IP with anti-GFP affinity beads, 2 h 4 °C; blot anti-Flag, anti-GFP
[2] = target: BSK3-GFP (Arabidopsis Flag-RTFL18*BSK3-GFP line) (Arabidopsis) (UniProt Q8W4L3); test: as above
GST-BSK3 WT = target: T2, GST-BSK3 WT (Arabidopsis, UniProt Q8W4L3 1-489); test: pull-down; in vitro (Fig. 4l): purified GST-BSK3 WT on glutathione beads, then His-RTFL18 (WT, M1, M2), 4 °C 2 h, 1 × PBS with 1 mM DTT; blot anti-His, anti-GST; both purified
T2 construct: BSK3, Arabidopsis; full-length coding region cloned into pGEX4-T-1; source: E. coli BL21 (DB3), purified; not shown: GST, N-terminal, kept

[3] = target: BSK3-GFP (transient in N. benthamiana) (Arabidopsis) (UniProt Q8W4L3); test: co-IP; N. benthamiana leaves transiently co-expressing Flag-RTFL18 with GFP, BSK3-GFP or BSK6-GFP; IP with anti-GFP affinity beads, 2 h 4 °C; blot anti-Flag, anti-GFP
[4] = target: BSK6-GFP (transient in N. benthamiana) (Arabidopsis) (UniProt Q9M324); test: as above
BSK6-nLuc (Arabidopsis) = BSK6-nLuc (Arabidopsis) (UniProt Q9M324); test: split reporter; luciferase complementation imaging (LCI) in N. benthamiana leaves; BSK-nLuc with cLuc-RTFL; CCD imaging
BSK3-nLuc (Arabidopsis) = BSK3-nLuc (Arabidopsis) (UniProt Q8W4L3); test: as above

Molecule: BSK6-Flag (from UniProt Q9M324 1-490)
- binding (GST-RTFL18 (Arabidopsis)): binds

B1: nYFP-RTFL18 (peptide, UniProt Q6X5V0 1-51)
chain: MEMKRVMMSSAERSKEKKRSISRRLGKYMKEQKGRIYIIRRCMVMLLCSHD
- binding (BSK6-cYFP (Arabidopsis)): binds
- binding (BSK3-cYFP (Arabidopsis)): binds

B2: Flag-RTFL18 (Arabidopsis 35S::Flag-RTFL18 lines) (peptide, UniProt Q6X5V0 1-51)
chain: MEMKRVMMSSAERSKEKKRSISRRLGKYMKEQKGRIYIIRRCMVMLLCSHD
- binding [1]: binds
- binding [2]: binds

B5: cLuc-RTFL18 (peptide, UniProt Q6X5V0 1-51)
chain: MEMKRVMMSSAERSKEKKRSISRRLGKYMKEQKGRIYIIRRCMVMLLCSHD
- binding (BSK6-nLuc (Arabidopsis)): binds
- binding (BSK3-nLuc (Arabidopsis)): binds

Now from value to molecule:

- binding (GST-RTFL18 (Arabidopsis)): binds
Molecule: BSK3-Flag (from UniProt Q8W4L3 1-489)

- binding (GST-BSK3 WT): binds weakly
B3: His-RTFL18 M1 (I39A, M43A, L47A) (peptide, UniProt Q6X5V0 1-51)
chain: MEMKRVMMSSAERSKEKKRSISRRLGKYMKEQKGRIYIARRCAVMLACSHD

- binding [3]: binds
- binding [4]: binds
B4: Flag-RTFL18 (transient in N. benthamiana) (peptide, UniProt Q6X5V0 1-51)
chain: MEMKRVMMSSAERSKEKKRSISRRLGKYMKEQKGRIYIIRRCMVMLLCSHD
